This passage reports binding results from paper PMC2614472.

No constants are given. Whether binding was seen depends on the method and setting. In cells and extracts the contact can be indirect. Here binding means that the protein was enriched with, or labelled near, the bait; the list need not be complete. Tags and fused reporters may be left off the sequences shown.

In assay [1] the target is T1, GST-dysbindin-1 (mouse) (mouse) (UniProt Q91WZ8).
T1 sequence: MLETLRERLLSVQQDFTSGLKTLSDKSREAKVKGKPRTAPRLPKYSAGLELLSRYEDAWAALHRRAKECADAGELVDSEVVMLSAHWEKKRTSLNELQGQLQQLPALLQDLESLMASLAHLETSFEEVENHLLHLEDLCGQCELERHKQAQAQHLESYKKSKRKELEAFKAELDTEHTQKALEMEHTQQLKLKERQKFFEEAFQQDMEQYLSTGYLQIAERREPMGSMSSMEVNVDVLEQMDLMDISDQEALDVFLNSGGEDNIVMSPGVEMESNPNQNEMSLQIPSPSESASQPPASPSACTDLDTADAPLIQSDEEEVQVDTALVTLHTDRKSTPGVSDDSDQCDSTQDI
Nature of the assay: affinity purification with mass spectrometry; GST-dysbindin-1 (mouse) on glutathione Sepharose 4B incubated 3 h at 4°C with precleared mouse skeletal muscle homogenate in lysis buffer; specific CBB bands identified by MALDI-TOF-MS; only the target purified.

Assay [2] concerns the target T1, GST-dysbindin-1 (mouse) (mouse). Nature of the assay: affinity purification with mass spectrometry; GST-dysbindin-1 (mouse) on glutathione Sepharose 4B incubated 3 h at 4°C with precleared mouse brain homogenate in lysis buffer; specific CBB bands identified by MALDI-TOF-MS; only the target purified.
The target in assay [3] is T2, GST-dysbindin-1 (human, isoform A) (human) (UniProt Q96EV8).
T2 sequence: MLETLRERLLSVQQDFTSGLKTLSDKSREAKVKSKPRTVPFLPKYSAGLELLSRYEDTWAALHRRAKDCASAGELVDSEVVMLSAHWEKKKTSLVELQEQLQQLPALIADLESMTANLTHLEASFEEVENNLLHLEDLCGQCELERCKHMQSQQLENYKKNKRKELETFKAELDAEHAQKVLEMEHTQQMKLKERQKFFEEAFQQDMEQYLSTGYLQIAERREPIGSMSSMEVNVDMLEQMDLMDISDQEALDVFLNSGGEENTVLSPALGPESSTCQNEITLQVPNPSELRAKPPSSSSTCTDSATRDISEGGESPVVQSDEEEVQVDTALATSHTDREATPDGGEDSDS
The experiment in a line: affinity purification with mass spectrometry; GST or GST-dysbindin-1 (human isoform A) on glutathione Sepharose 4B incubated 3 h at 4°C with precleared SH-SY5Y lysate (50 mM Tris-HCl pH 7.5, 150 mM NaCl, 1 mM EDTA, 1% Triton X-100); four washes; SDS-PAGE, CBB bands identified by MALDI-TOF-MS peptide mass fingerprinting; only the target ….

B1: Dapk1 (mouse) (protein, UniProt Q80YE7-2 1-1430)
chain: MTVFRQENVDDYYDTGEELGSGQFAVVKKCREKSTGLQYAAKFIKKRRTKSSRRGVSREDIEREVSILKEIRHPNVITLHEVYENKTDVILILELVAGGELFDFLAEKESLTEEEATEFLKQILSGVYYLHSLQIAHFDLKPENIMLLDRNVPKPRIKIIDFGLAHKIDFGNEFKNIFGTPEFVAPEIVNYEPLGLEADMWSIGVITYILLSGASPFLGDTKQETLANVSAVNYDFEEEFFRNTSTLAKDFIRRLLVKDPKKRMTIQDSLQHPWIKPKDTQQALSRKASAVNMEKFKKFAARKKWKQSVRLISLCQRLSRSFLSRSNMSVARSDDTLDEEDSFVMKAIIHAINDDNVPGLQHLLGSLSSYDVNQPNKHGTPPLLIAAGCGNIQMLQLLIKRGSRIDVQDKGGSNAIYWASRHGHVDTLKFLNENKCPLDVKDKSGETALHVAARYGHADVVQLLCSFGSNPDFQDKEEETPLHCAAWHGYYSVAKALCEVGCNVNIKNREGETPLLTASARGYHDIVECLAEHGADLNASDKDGHIALHLAVRRCQMEVIKTLLGHGSFVDFQDRHGNTPLHVACKDGSAPIVVALCEASCNLDISNKYGRTPLHLAANNGILDVVRYLCLMGANVEALTSDGKTAEDLAKAEQHEHVAGLLARLRKDTHRGLFIQQLRPTQNLQPRIKLKLFGHSGSGKSTLVESLKCGLLRSFFRRRRPRLSSTNSTRFPPSPLAAKPTVSVSINNLYPGCENVSVRSRSMMFEPGLTKGMLEVFVAPSHHLHCSTDDQSTKAIDIQNAYLNGVGDFSVWEFSGNPVYFCCYDYFAANDPTSIHIIVFSLEEPYEIQLNQVIFWLSFLKSLVPVEEPIAFGGKLKNPLRVVLVATHADIMNIPRPAGGEFGYDKDTSLLKEIRNRFGNDLHVSNKLFVLDAGASGSKDIKVLRNHLQEIRSQIVSGCSPMTHLCEKIISTLPSWRKLNGPNQLMSLQQFVYDVQDQLNPLASEDDLRRIAQQLHSTGEINIMQSETVQDVLLLDPRWLCTNVLGKLLSVETPRALHHYRGRYTMEDIQRLVPDSDVEELLQILDAMDICARDLSSGTMVDIPALIKTDSLQRSWADEEDEVMVYGGVRIVPVEHLTPFPCGIFHKVQVNLCRWIHQQSAEGDADIRLWVSGCRIANRGAELLVLLVNHGQGIEVQVRGLETEKIKCCLLLDSVCSTIETVMATTLPGLLTVKHYLSPQQLREHHEPVMVYQPRDFFRAQTLKESSLTNTMGGYKESFSSITCFGCHDVYSQASLGMDIHASDLSLLTRRKLSRLLDPPDPMGKDWCLLAMNLGLPDMVAKHNVNNRASRDFLPSPVHALLQEWTSYPESTVGILISKLRELGRRDAADFLLKASSVFKINLDGNGQEAYASSCNSGTSYNSISSVVSR
For B1, the binding result in assay [1] is reported as “binds”.

B2: Ap3b2 (mouse) (protein, UniProt Q9JME5 1-1082)
chain: MSAAPAYSEDKGGSAGPGEPEYGHDPASGGIFSSDYKRHDDLKEMLDTNKDSLKLEAMKRIVAMIARGKNASDLFPAVVKNVACKNIEVKKLVYVYLVRYAEEQQDLALLSISTFQRGLKDPNQLIRASALRVLSSIRVPIIVPIMMLAIKEAASDMSPYVRKTAAHAIPKLYSLDSDQKDQLIEVIEKLLADKTTLVAGSVVMAFEEVCPERIDLIHKNYRKLCNLLIDVEEWGQVVIISMLTRYARTQFLSPTQNESLLEENPEKAFYGSEEDEAKGPGSEEAATAALPARKPYVMDPDHRLLLRNTKPLLQSRSAAVVMAVAQLYFHLAPKAEVGVIAKALVRLLRSHSEVQYVVLQNVATMSIKRRGMFEPYLKSFYIRSTDPTQIKILKLEVLTNLANETNIPTVLREFQTYIRSMDKDFVAATIQAIGRCATNIGRVRDTCLNGLVQLLSNRDELVVAESVVVIKKLLQMQPAQHGEIIKHLAKLTDNIQVPMARASILWLIGEYCEHVPKIAPDVLRKMAKSFTAEEDIVKLQVINLAAKLYLTNSKQTKLLTQYVLSLAKYDQNYDIRDRARFTRQLIVPSEQGGALSRHAKKLFLAPKPAPILESSFKDRDHFQLGSLSHLLNAKATGYQELPDWPEEAPDPSVRNVEVPEWTKCSNREKRKEKEKPFYSDSEGESGPTESADSEPESESESESKSSSGSGSGESSSESDNEEEDEEKGGGSESEQSEEEDEKKKKTKKKKASEGHREGSSSEEGSDSSSSSESEVTSESEEEQVEPASWRKKTPPGSKSAPVAKEISLLDLEDFTPPSVQPVSPPMVVSTSLAADLEGLTLTDSSLVPSLLSPVSSIGRQELLHRVAGEGLSVDYAFSRQPFSGDPHMVSLHIYFSNNSETPIKGLHVGTPKLPAGISIQEFPEIESLAPGESTTTVMGINFCDSTQAANFQLCTQTRQFYVSIQPPVGELMAPVFMSENEFKKEQGKLTGMNEITEKLTLPDTCRSDHMVVQKVTATANLGRVPCGTSDEYRFAGRTLTSGSLVLLTLDARAAGAAQLTVNSEKMVIGTMLVKDVIQALTQ
B2: the binding result in assay [2] is “binds”.

B3: Slc25a4 (mouse) (protein, UniProt P48962 1-298)
chain: MGDQALSFLKDFLAGGIAAAVSKTAVAPIERVKLLLQVQHASKQISAEKQYKGIIDCVVRIPKEQGFLSFWRGNLANVIRYFPTQALNFAFKDKYKQIFLGGVDRHKQFWRYFAGNLASGGAAGATSLCFVYPLDFARTRLAADVGKGSSQREFNGLGDCLTKIFKSDGLKGLYQGFSVSVQGIIIYRAAYFGVYDTAKGMLPDPKNVHIIVSWMIAQSVTAVAGLVSYPFDTVRRRMMMQSGRKGADIMYTGTLDCWRKIAKDEGANAFFKGAWSNVLRGMGGAFVLVLYDEIKKYV
With B3, the binding result in assay [1] is recorded as “binds”.

B4: Hadhb (mouse) (protein, UniProt Q99JY0 35-475)
chain: SAPAVQTKSKKTLAKPNMKNIVVVEGVRIPFLLSGTSYKDLMPHDLARAALSGLLHRTNIPKDVVDYIIFGTVIQEVKTSNVAREAALGAGFSDKTPAHTVTMACISSNQAMTTAVGLIASGQCDVVVAGGVELMSDVPIRHSRNMRKMMLDLNKAKTLGQRLSLLSKFRLNFLSPELPAVAEFSTNETMGHSADRLAAAFAVSRMEQDEYALRSHSLAKKAQDEGHLSDIVPFKVPGKDTVTKDNGIRPSSLEQMAKLKPAFIKPYGTVTAANSSFLTDGASAMLIMSEDRALAMGYKPKAYLRDFIYVSQDPKDQLLLGPTYATPKVLEKAGLTMNDIDAFEFHEAFSGQILANFKAMDSDWFAQNYMGRKTKVGSPPLEKFNIWGGSLSLGHPFGATGCRLVMAAANRLRKDGGQYALVAACAAGGQGHAMIVEAYPK
As for B4, in assay [1], the binding entry is listed as “binds”.

B5: adaptor-related protein complex 3, beta 2 subunit (AP3b2) (protein, UniProt Q13367-1 1-1082)
chain: MSAAPAYSEDKGGSAGPGEPEYGHDPASGGIFSSDYKRHDDLKEMLDTNKDSLKLEAMKRIVAMIARGKNASDLFPAVVKNVACKNIEVKKLVYVYLVRYAEEQQDLALLSISTFQRGLKDPNQLIRASALRVLSSIRVPIIVPIMMLAIKEAASDMSPYVRKTAAHAIPKLYSLDSDQKDQLIEVIEKLLADKTTLVAGSVVMAFEEVCPERIDLIHKNYRKLCNLLIDVEEWGQVVIISMLTRYARTQFLSPTQNESLLEENAEKAFYGSEEDEAKGAGSEETAAAAAPSRKPYVMDPDHRLLLRNTKPLLQSRSAAVVMAVAQLYFHLAPKAEVGVIAKALVRLLRSHSEVQYVVLQNVATMSIKRRGMFEPYLKSFYIRSTDPTQIKILKLEVLTNLANETNIPTVLREFQTYIRSMDKDFVAATIQAIGRCATNIGRVRDTCLNGLVQLLSNRDELVVAESVVVIKKLLQMQPAQHGEIIKHLAKLTDNIQVPMARASILWLIGEYCEHVPRIAPDVLRKMAKSFTAEEDIVKLQVINLAAKLYLTNSKQTKLLTQYVLSLAKYDQNYDIRDRARFTRQLIVPSEQGGALSRHAKKLFLAPKPAPVLESSFKDRDHFQLGSLSHLLNAKATGYQELPDWPEEAPDPSVRNVEVPEWTKCSNREKRKEKEKPFYSDSEGESGPTESADSDPESESESDSKSSSESGSGESSSESDNEDQDEDEEKGRGSESEQSEEDGKRKTKKKVPERKGEASSSDEGSDSSSSSSESEMTSESEEEQLEPASWSRKTPPSSKSAPATKEISLLDLEDFTPPSVQPVSPPAIVSTSLAADLEGLTLTDSTLVPSLLSPVSGVGRQELLHRVAGEGLAVDYTFSRQPFSGDPHMVSVHIHFSNSSDTPIKGLHVGTPKLPAGISIQEFPEIESLAPGESATAVMGINFCDSTQAANFQLCTQTRQFYVSIQPPVGELMAPVFMSENEFKKEQGKLMGMNEITEKLMLPDTCRSDHIVVQKVTATANLGRVPCGTSDEYRFAGRTLTGGSLVLLTLDARPAGAAQLTVNSEKMVIGTMLVKDVIQALTQ
As for B5, the binding result in assay [3] is “binds”.
